Measured values: the supplement of paper PMC4604168 (melanoma cell lines)
The list shows a part of the results. Repeats are few or missing, and single values can be far off.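 The apoptosis fraction was the count of cleaved-PARP antibody-stained nuclei relative to all DNA-stained nuclei, imaged in 1,536-well plates. Screening doses were set so most cells survived, and baseline and induced cleaved-PARP levels vary greatly across cell lines.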

Assays:
Experiment in all cases: cleaved PARP positive nuclei fraction relative to DMSO control; melanoma cells; higher = more apoptosis
Settings in all cases: library dose: low library concentration; 72 h
MZ2-MEL = system: MZ2-MEL
MeWo = system: MeWo
RPMI7951 = system: RPMI7951
RVH-421 = system: RVH-421
SkMel28 = system: SkMel28
SkMel30 = system: SkMel30
SkMel5 = system: SkMel5
UACC257 = system: UACC257
UACC62 = system: UACC62
WM115 = system: WM115
WM1716 = system: WM1716
WM1745 = system: WM1745
WM3526 = system: WM3526
WM3619 = system: WM3619
WM451Lu = system: WM451Lu

Structure (SMILES)	cleaved PARP positive nuclei fraction (MZ2-MEL) [%]	cleaved PARP positive nuclei fraction (MeWo) [%]	cleaved PARP positive nuclei fraction (RPMI7951) [%]	cleaved PARP positive nuclei fraction (RVH-421) [%]	cleaved PARP positive nuclei fraction (SkMel28) [%]	cleaved PARP positive nuclei fraction (SkMel30) [%]	cleaved PARP positive nuclei fraction (SkMel5) [%]	cleaved PARP positive nuclei fraction (UACC257) [%]	cleaved PARP positive nuclei fraction (UACC62) [%]	cleaved PARP positive nuclei fraction (WM115) [%]	cleaved PARP positive nuclei fraction (WM1716) [%]	cleaved PARP positive nuclei fraction (WM1745) [%]	cleaved PARP positive nuclei fraction (WM3526) [%]	cleaved PARP positive nuclei fraction (WM3619) [%]	cleaved PARP positive nuclei fraction (WM451Lu) [%]
CO[C@H]1C[C@@H]2CC[C@@H](C)[C@@](O)(O2)C(=O)C(=O)N2CCCC[C@H]2C(=O)O[C@H]([C@H](C)C[C@@H]2CC[C@@H](OCCO)[C@H](OC)C2)CC(=O)[C@H](C)/C=C(\C)[C@@H](O)[C@@H](OC)C(=O)[C@H](C)C[C@H](C)/C=C/C=C/C=C/1C [everolimus] + O=C(Nc1ccccc1)c1cc([N+](=O)[O-])ccc1Cl [GW9662] (first compound 0.02 µM, partner dose 2 µM)	73.3	142	83.9	79.7	193	219	68.6	202	105	232	309	105	106	158	83.7
CO[C@H]1C[C@@H]2CC[C@@H](C)[C@@](O)(O2)C(=O)C(=O)N2CCCC[C@H]2C(=O)O[C@H]([C@H](C)C[C@@H]2CC[C@@H](OCCO)[C@H](OC)C2)CC(=O)[C@H](C)/C=C(\C)[C@@H](O)[C@@H](OC)C(=O)[C@H](C)C[C@H](C)/C=C/C=C/C=C/1C [everolimus] + Cn1cncc1[C@@](N)(c1ccc(Cl)cc1)c1ccc2c(c1)c(-c1cccc(Cl)c1)cc(=O)n2C [tipifarnib] (first compound 0.02 µM, partner dose 0.01 µM)	131	49.1	123	131	367	106	80.2	470	619	223	91	104	151	134	426
CO[C@H]1C[C@@H]2CC[C@@H](C)[C@@](O)(O2)C(=O)C(=O)N2CCCC[C@H]2C(=O)O[C@H]([C@H](C)C[C@@H]2CC[C@@H](OCCO)[C@H](OC)C2)CC(=O)[C@H](C)/C=C(\C)[C@@H](O)[C@@H](OC)C(=O)[C@H](C)C[C@H](C)/C=C/C=C/C=C/1C [everolimus] + C[C@@H]1CCN(C(=O)CC#N)C[C@@H]1N(C)c1ncnc2[nH]ccc12 [CP690550] (first compound 0.02 µM, partner dose 1 µM)	130	58.1	56.1	46.1	174	120	59.8	220	186	180	44	96.9	146	116	194
CO[C@H]1C[C@@H]2CC[C@@H](C)[C@@](O)(O2)C(=O)C(=O)N2CCCC[C@H]2C(=O)O[C@H]([C@H](C)C[C@@H]2CC[C@@H](OCCO)[C@H](OC)C2)CC(=O)[C@H](C)/C=C(\C)[C@@H](O)[C@@H](OC)C(=O)[C@H](C)C[C@H](C)/C=C/C=C/C=C/1C [everolimus] + O=C(CCCCCCC(=O)Nc1ccccc1)NO [vorinostat] (first compound 0.02 µM, partner dose 0.08 µM)	276	140	147	102	530	47.7	224	211	99.2	163	80.8	84	77.9	107	143
CO[C@H]1C[C@@H]2CC[C@@H](C)[C@@](O)(O2)C(=O)C(=O)N2CCCC[C@H]2C(=O)O[C@H]([C@H](C)C[C@@H]2CC[C@@H](OCCO)[C@H](OC)C2)CC(=O)[C@H](C)/C=C(\C)[C@@H](O)[C@@H](OC)C(=O)[C@H](C)C[C@H](C)/C=C/C=C/C=C/1C [everolimus] + NC(=O)Nc1cc(-c2cccc(F)c2)sc1C(=O)N[C@H]1CCCNC1 [AZD7762] (first compound 0.02 µM, partner dose 0.02 µM)	43.4	63.7	203	118	391	91.6	110	68.1	150	53.3	256	131	107	212	110
CC(C)C[C@H](NC(=O)[C@H](Cc1ccccc1)NC(=O)c1cnccn1)B(O)O [Bortezomib] + CO[C@H]1C[C@@H]2CC[C@@H](C)[C@@](O)(O2)C(=O)C(=O)N2CCCC[C@H]2C(=O)O[C@H]([C@H](C)C[C@@H]2CC[C@@H](OCCO)[C@H](OC)C2)CC(=O)[C@H](C)/C=C(\C)[C@@H](O)[C@@H](OC)C(=O)[C@H](C)C[C@H](C)/C=C/C=C/C=C/1C [everolimus] (first compound 0.001 µM, partner dose 0.02 µM)	212	184	161	239	1000	72.2	–	–	725	205	687	211	62.5	244	255
CO[C@H]1C[C@@H]2CC[C@@H](C)[C@@](O)(O2)C(=O)C(=O)N2CCCC[C@H]2C(=O)O[C@H]([C@H](C)C[C@@H]2CC[C@@H](OCCO)[C@H](OC)C2)CC(=O)[C@H](C)/C=C(\C)[C@@H](O)[C@@H](OC)C(=O)[C@H](C)C[C@H](C)/C=C/C=C/C=C/1C [everolimus] + O=C(Nc1cccc(Cl)c1)Nc1ncc(CCNc2ncnc3ccsc23)s1 [SNS314] (first compound 0.02 µM, partner dose 0.0008 µM)	75.3	37.9	87.5	231	228	34.8	31.9	468	80.3	83.1	127	110	203	153	157
CO[C@H]1C[C@@H]2CC[C@@H](C)[C@@](O)(O2)C(=O)C(=O)N2CCCC[C@H]2C(=O)O[C@H]([C@H](C)C[C@@H]2CC[C@@H](OCCO)[C@H](OC)C2)CC(=O)[C@H](C)/C=C(\C)[C@@H](O)[C@@H](OC)C(=O)[C@H](C)C[C@H](C)/C=C/C=C/C=C/1C [everolimus] + Cc1nc(Nc2ncc(C(=O)Nc3c(C)cccc3Cl)s2)cc(N2CCN(CCO)CC2)n1 [dasatanib] (first compound 0.02 µM, partner dose 0.004 µM)	33.3	137	152	310	141	109	–	–	398	178	101	131	274	130	108
Cc1cc(Nc2cc(N3CCN(C)CC3)nc(/C=C/c3ccccc3)n2)n[nH]1 + Nc1cccc2c1CN(C1CCC(=O)NC1=O)C2=O [lenalidomide] (first compound 0.04 µM, partner dose 1 µM)	185	113	102	59.9	37.9	138	–	–	49.1	71.8	70.6	95.6	43.8	204	44
CO[C@H]1C[C@@H]2CC[C@@H](C)[C@@](O)(O2)C(=O)C(=O)N2CCCC[C@H]2C(=O)O[C@H]([C@H](C)C[C@@H]2CC[C@@H](OCCO)[C@H](OC)C2)CC(=O)[C@H](C)/C=C(\C)[C@@H](O)[C@@H](OC)C(=O)[C@H](C)C[C@H](C)/C=C/C=C/C=C/1C [everolimus] + COC(=O)c1sccc1S(=O)(=O)Nc1ccc(Nc2ccccc2)cc1OC [GSK0660] (first compound 0.02 µM, partner dose 1 µM)	89.7	54.2	152	108	282	261	73.9	203	370	61.4	22.1	117	273	122	296
CO[C@H]1C[C@@H]2CC[C@@H](C)[C@@](O)(O2)C(=O)C(=O)N2CCCC[C@H]2C(=O)O[C@H]([C@H](C)C[C@@H]2CC[C@@H](OCCO)[C@H](OC)C2)CC(=O)[C@H](C)/C=C(\C)[C@@H](O)[C@@H](OC)C(=O)[C@H](C)C[C@H](C)/C=C/C=C/C=C/1C [everolimus] + CC(=O)c1c(C)c2cnc(Nc3ccc(N4CCNCC4)cn3)nc2n(C2CCCC2)c1=O [palbociclib] (first compound 0.02 µM, partner dose 0.04 µM)	124	177	88.6	277	240	172	–	–	271	46.3	217	131	257	307	319
CO[C@H]1C[C@@H]2CC[C@@H](C)[C@@](O)(O2)C(=O)C(=O)N2CCCC[C@H]2C(=O)O[C@H]([C@H](C)C[C@@H]2CC[C@@H](OCCO)[C@H](OC)C2)CC(=O)[C@H](C)/C=C(\C)[C@@H](O)[C@@H](OC)C(=O)[C@H](C)C[C@H](C)/C=C/C=C/C=C/1C [everolimus] + CN(NC(=O)CC(=O)NN(C)C(=S)c1ccccc1)C(=S)c1ccccc1 [STA4783] (first compound 0.02 µM, partner dose 0.006 µM)	187	72.7	104	103	287	171	75	169	246	821	350	371	1990	168	158
CO[C@H]1C[C@@H]2CC[C@@H](C)[C@@](O)(O2)C(=O)C(=O)N2CCCC[C@H]2C(=O)O[C@H]([C@H](C)C[C@@H]2CC[C@@H](OCCO)[C@H](OC)C2)CC(=O)[C@H](C)/C=C(\C)[C@@H](O)[C@@H](OC)C(=O)[C@H](C)C[C@H](C)/C=C/C=C/C=C/1C [everolimus] + Nc1cccc2c1CN(C1CCC(=O)NC1=O)C2=O [lenalidomide] (first compound 0.02 µM, partner dose 1 µM)	113	147	201	144	276	70.7	–	–	389	194	59.4	107	373	119	56.9
CO[C@H]1C[C@@H]2CC[C@@H](C)[C@@](O)(O2)C(=O)C(=O)N2CCCC[C@H]2C(=O)O[C@H]([C@H](C)C[C@@H]2CC[C@@H](OCCO)[C@H](OC)C2)CC(=O)[C@H](C)/C=C(\C)[C@@H](O)[C@@H](OC)C(=O)[C@H](C)C[C@H](C)/C=C/C=C/C=C/1C [everolimus] + O=C(O)c1ccc2c(c1)nc(Nc1cccc(Cl)c1)c1ccncc12 [CX4945] (first compound 0.02 µM, partner dose 0.4 µM)	106	172	70.2	88.6	162	118	–	–	557	121	108	95.1	125	119	120
